Results are given in words; binding and its absence hold for the method and conditions named. Binding seen in cells or lysates may run through a third protein. Some binding calls cover weakened binding; strength is not graded here. Tags and fused reporters may be left off the sequences shown.
Legend:
[1] = molecular target: T1, Utp13p-TAP (S. cerevisiae) (UniProt Q05946); experiment: co-IP; IgG sepharose beads precipitate the TAP- or ZZ-tagged protein from total yeast extracts; HA-tagged protein detected by western with anti-HA antibodies
T1 sequence: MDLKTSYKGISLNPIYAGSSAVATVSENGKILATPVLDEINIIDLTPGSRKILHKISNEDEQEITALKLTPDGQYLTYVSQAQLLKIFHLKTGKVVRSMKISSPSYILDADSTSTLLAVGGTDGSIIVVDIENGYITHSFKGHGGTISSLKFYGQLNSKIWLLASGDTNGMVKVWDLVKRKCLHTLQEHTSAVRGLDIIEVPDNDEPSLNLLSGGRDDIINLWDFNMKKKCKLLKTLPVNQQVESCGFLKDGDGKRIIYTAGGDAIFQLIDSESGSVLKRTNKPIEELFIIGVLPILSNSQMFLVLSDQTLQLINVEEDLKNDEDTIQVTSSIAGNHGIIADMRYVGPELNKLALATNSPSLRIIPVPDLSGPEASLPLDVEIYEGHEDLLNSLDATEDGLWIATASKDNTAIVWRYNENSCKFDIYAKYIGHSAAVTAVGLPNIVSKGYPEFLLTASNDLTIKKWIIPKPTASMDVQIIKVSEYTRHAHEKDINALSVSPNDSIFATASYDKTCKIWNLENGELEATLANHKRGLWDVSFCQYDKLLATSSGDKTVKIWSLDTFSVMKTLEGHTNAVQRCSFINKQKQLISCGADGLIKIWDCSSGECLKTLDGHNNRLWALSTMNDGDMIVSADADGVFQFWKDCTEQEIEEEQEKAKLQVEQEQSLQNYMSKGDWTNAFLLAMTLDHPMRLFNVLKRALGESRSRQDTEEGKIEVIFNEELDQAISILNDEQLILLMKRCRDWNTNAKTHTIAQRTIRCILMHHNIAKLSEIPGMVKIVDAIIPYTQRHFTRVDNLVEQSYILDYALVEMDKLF

By UniProt entry, the sequences of proteins in these tests, tags left out.
UniProt P53131: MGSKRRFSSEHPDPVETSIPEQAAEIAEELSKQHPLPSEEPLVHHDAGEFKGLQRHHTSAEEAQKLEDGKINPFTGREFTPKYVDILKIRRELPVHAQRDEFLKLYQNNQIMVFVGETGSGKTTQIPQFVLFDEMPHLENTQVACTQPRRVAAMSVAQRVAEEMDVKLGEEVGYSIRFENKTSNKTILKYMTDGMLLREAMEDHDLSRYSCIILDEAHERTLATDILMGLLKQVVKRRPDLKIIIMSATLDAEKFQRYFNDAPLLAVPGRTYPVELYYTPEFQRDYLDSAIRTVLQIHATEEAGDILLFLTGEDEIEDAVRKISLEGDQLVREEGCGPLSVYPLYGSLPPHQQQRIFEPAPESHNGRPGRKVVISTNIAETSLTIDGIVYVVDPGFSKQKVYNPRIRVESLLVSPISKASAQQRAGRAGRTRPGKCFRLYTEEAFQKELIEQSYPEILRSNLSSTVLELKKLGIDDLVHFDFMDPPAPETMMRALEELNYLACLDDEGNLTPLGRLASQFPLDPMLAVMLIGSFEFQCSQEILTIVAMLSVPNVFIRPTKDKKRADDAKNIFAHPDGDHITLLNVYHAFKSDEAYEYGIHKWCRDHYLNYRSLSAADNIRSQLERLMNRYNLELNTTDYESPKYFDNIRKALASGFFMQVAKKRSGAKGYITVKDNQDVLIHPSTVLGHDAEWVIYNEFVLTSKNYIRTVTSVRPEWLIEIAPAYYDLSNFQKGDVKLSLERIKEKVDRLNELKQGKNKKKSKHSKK

[2] = molecular target: Prp43p-TAP (S. cerevisiae) (UniProt P53131); experiment: as above

B1: Gno1p-HA (GNO1-HA-TRP1 cassette, made with plasmid pFA6a-3HA-TRP1) (protein, UniProt P53335 1-271)
chain: MGLAATRTKQRFGLDPRNTAWSNDTSRFGHQFLEKFGWKPGMGLGLSPMNSNTSHIKVSIKDDNVGLGAKLKRKDKKDEFDNGECAGLDVFQRILGRLNGKESKISEELDTQRKQKIIDGKWGIHFVKGEVLASTWDPKTHKLRNYSNAKKRKREGDDSEDEDDDDKEDKDSDKKKHKKHKKHKKDKKKDKKDKKEHKKHKKEEKRLKKEKRAEKTKETKKTSKLKSSESASNIPDAVNTRLSVRSKWIKQKRAALMDSKALNEIFMITND
- binding [1]: binds
- binding [2]: binds

From paper PMC4066782, “The telomerase inhibitor Gno1p/PINX1 activates the helicase Prp43p during ribosome biogenesis” (Nucleic Acids Research, 2014)
